The list shows only some results of the screen, not a fair sample: it gathers tests that were run many times, whatever their T/C, doses with no T/C, and many T/C values between a quarter and a half above the control. Other doses and runs of a compound stand elsewhere. T/C gives the treated animals as a percentage of the vehicle group. Schedules are NCI's codes, taken here to give the interval after Q, in days (D) or hours (H), and the number of doses after X. Some entries were tested several times; their values stand side by side, smallest first. Some T/C values are followed by the survivors on the day toxicity was checked, most often the fifth; where none is given, no animal had died by that day. Some entries give survivors of the animals treated and no T/C: the source files T/C as zero there, which appears to mark a toxic dose or a test without result, not a measured value. Survivors were counted at the toxicity check, usually on the fifth day, unless a day is given; later deaths do not show.
Tested on: nude mice, LX-1 lung xenograft intrarenal, tumor weight T/C
Test: NCI In Vivo Anticancer Drug Screen. Data for tumor model Human Lung LX-1 Xenograft (intrarenal inoculation) in NU/NU Swiss (nude) mice
Settings: T/C endpoint: mean tumor weight change, higher T/C = larger tumour; for T/C: evaluated on day 11
Method in brief: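 Antitumor effect is expressed as a ratio: the mean tumor measurement of the drug-treated group relative to that of the vehicle-dosed control group.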

[1] = dose: 100.0 mg/kg/injection, schedule: Q01DX010 (sc), vehicle: saline
[2] = dose: 400.0 mg/kg/injection, schedule: Q01DX010 (sc), vehicle: saline
[3] = dose: 200.0 mg/kg/injection, schedule: Q04DX003 (sc), vehicle: Klucel (hydroxypropylcellulose) (HPC)
[4] = dose: 50.0 mg/kg/injection, schedule: Q01DX010 (sc), vehicle: saline
[5] = dose: 25.0 mg/kg/injection, schedule: Q01DX010 (sc), vehicle: saline
[6] = dose: 300.0 mg/kg/injection, schedule: Q04DX003 (sc), vehicle: saline

With `Cc1cc(SCC(=O)c2ccc(Br)cc2)cc(C)[o+]1` the T/C [1] was 129 % of control [2 of 2 alive on day 11] and the T/C [2] was 129 % of control.
For `Cc1cc(NCCCCCCNc2cc(C)nc3cc(N(C)C)ccc23)c2ccc(N(C)C)cc2n1`, the survivor count (dose: 300.0 mg/kg/injection, schedule: Q04DX003 (sc), vehicle: distilled water + Tween-80 + alcohol) was 1 of 6 on day 11 and the survivor count (dose: 600.0 mg/kg/injection, schedule: Q04DX003 (sc), vehicle: distilled water + Tween-80 + alcohol) was 0 of 6 on day 11.
`CN1N=C(N)c2cn(C3OC(COP(=O)(O)O)C(O)C3O)c3ncnc1c23` (configuration not stated) was tested, and the survivor count (dose: 100.0 mg/kg/injection, schedule: Q01DX010 (sc), vehicle: water) was 0 of 3 on day 11.
For `OC1CCCC2CCCNC12` (configuration not stated), the survivor count (dose: 300.0 mg/kg/injection, schedule: Q04DX003 (sc), vehicle: saline with Tween-80) was 1 of 6 on day 11.
With `Nc1nc(F)nc2c1ncn2C1OC(COP(=O)(O)O)C(O)C1O` (configuration not stated) the survivor count [2] was 0 of 6 on day 11, the survivor count (dose: 400.0 mg/kg/injection, schedule: Q01DX010 (sc), vehicle: suspension in saline) was 3 of 6 on day 11 and the survivor count (dose: 800.0 mg/kg/injection, schedule: Q01DX010 (sc), vehicle: saline) was 0 of 6 on day 11.
For `COC1=C(NC(C)=O)C(=O)c2nc(-c3nc(C(=O)O)c(C)c(-c4ccc(OC)c(OC)c4O)c3N)ccc2C1=O`, the survivor count [3] was 3 of 5 on day 11.
`CCCC(=O)O` was tested, and the T/C [4] was 139 % of control.
With `CC1(C)CC1(Br)Br` the survivor count (dose: 400.0 mg/kg/injection, schedule: Q01DX010 (sc), vehicle: saline with Tween-80) was 1 of 3 on day 11 and the survivor count (dose: 800.0 mg/kg/injection, schedule: Q01DX010 (sc), vehicle: saline with Tween-80) was 1 of 3 on day 11.
In the case of `COCC1OC2OC3C(COC)OC(OC4C(COC)OC(OC5C(COC)OC(OC6C(COC)OC(OC7C(COC)OC(OC8C(COC)OC(OC1C(O)C2O)C(O)C8O)C(O)C7O)C(O)C6O)C(O)C5O)C(O)C4O)C(O)C3O` (configuration not stated) (tested in a mixture with another compound), the survivor count (dose: 400.0 mg/kg/injection, schedule: Q04DX003 (sc), vehicle: Klucel (hydroxypropylcellulose) (HPC)) is reported as 3 of 5 on day 11, the survivor count (dose: 800.0 mg/kg/injection, schedule: Q04DX003 (sc), vehicle: Klucel (hydroxypropylcellulose) (HPC)) is reported as 2 of 6 on day 11 and the survivor count (dose: 1600.0 mg/kg/injection, schedule: Q04DX003 (sc), vehicle: Klucel (hydroxypropylcellulose) (HPC)) is reported as 2 of 6 on day 11.
With `C1OC1C1CO1` (configuration not stated) the survivor count [1] was 0 of 3 on day 11.
`c1cc(-c2cc3ccc(C4=NCCN4)cc3[nH]2)ccc1C1=NCCN1` was tested, and the survivor count (dose: 200.0 mg/kg/injection, schedule: Q04DX003 (sc), vehicle: saline) was 1 of 6 on day 11.
In the case of `Cn1cnc([N+](=O)[O-])c1S(=O)(=O)NCN1CCOCC1`, the survivor count (dose: 200.0 mg/kg/injection, schedule: Q01DX010 (sc), vehicle: Klucel (hydroxypropylcellulose) (HPC)) is reported as 0 of 3 on day 11.
For `CSC1SCC2C(=O)N(C)C(C(C)C)C(=O)OCC(NC(=O)c3cnc4ccccc4n3)C(=O)NC(C)C(=O)N(C)C1C(=O)N(C)C(C(C)C)C(=O)OCC(NC(=O)c1cnc3ccccc3n1)C(=O)NC(C)C(=O)N2C` (configuration not stated), the survivor count (dose: 480.0 micrograms/kg/injection, schedule: Q01DX010 (sc), vehicle: saline) was 0 of 3 on day 11.
In the case of `N#C[C@H](OC1OC(COC2OC(CO)C(O)C(O)C2O)C(O)C(O)C1O)c1ccccc1` (some centres not stated), the T/C (dose: 450.0 mg/kg/injection, schedule: Q04DX003 (sc), vehicle: suspension in saline) is reported as 135 % of control and the T/C (dose: 3600.0 mg/kg/injection, schedule: Q04DX003 (sc), vehicle: suspension in saline) is reported as 134 % of control [5 of 6 alive on day 11].
With `COc1ccc(Cl)[n+]([O-])n1` the survivor count [3] was 0 of 6 on day 11.
`CC1(C)N=C(N)N=C(N)N1c1ccc(CCCCc2ccc(S(=O)(=O)F)cc2Cl)c(Cl)c1` was tested, and the survivor count (dose: 12.5 mg/kg/injection, schedule: Q01DX010 (sc), vehicle: saline) was 1 of 3 on day 11, the T/C [5] was 142 % of control and the survivor count [5] was 1 of 3 on day 11. The survivor count [4] was 0 of 3 on day 11 and 1 of 3 on day 11 and the survivor count [1] was 0 of 3 on day 11.
In the case of `O=C1C(O)=C(c2ccccc2)C(=O)C(O)=C1c1ccccc1`, the survivor count [6] is reported as 1 of 6 on day 11 and the survivor count (dose: 600.0 mg/kg/injection, schedule: Q04DX003 (sc), vehicle: saline) is reported as 0 of 6 on day 11.
In the case of `CS(=O)(=O)c1ncc(Br)cn1`, the survivor count (dose: 600.0 mg/kg/injection, schedule: Q04DX003 (sc), vehicle: saline with Tween-80) is reported as 0 of 6 on day 11.
`CN=S(=O)(OCCCCCOS(=O)(=NC)c1ccccc1)c1ccccc1` (configuration not stated) was tested, and the T/C (dose: 100.0 mg/kg/injection, schedule: Q04DX003 (sc), vehicle: saline with Tween-80) was 129 % of control.
In the case of `ClCCCN1CCCCC1CCl` (configuration not stated), the survivor count (dose: 50.0 mg/kg/injection, schedule: Q04DX003 (sc), vehicle: saline) is reported as 0 of 6 on day 11 and the survivor count (dose: 100.0 mg/kg/injection, schedule: Q04DX003 (sc), vehicle: saline) is reported as 0 of 6 on day 11.
With `O=NN(CCCl)C(=O)Oc1ccc(OC(=O)N(CCCl)N=O)cc1` the T/C (dose: 2400.0 mg/kg/injection, schedule: Q04DX003 (sc), vehicle: Klucel (hydroxypropylcellulose) (HPC)) was 145 % of control.
`CN1CCN(CCCN2c3ccccc3Sc3ccc(C(F)(F)F)cc32)CC1` was tested, and the T/C [4] was 54, 66, 140, 145 % of control and the survivor count [2] was 0 of 3 on day 11.
In the case of `COc1ccc2c(NCCCCCCCCNc3c4ccccc4nc4cc(OC)ccc34)c3ccccc3nc2c1`, the T/C (dose: 4.0 mg/kg/injection, schedule: Q04DX003 (sc), vehicle: suspension in saline) is reported as 149 % of control and the T/C (dose: 8.0 mg/kg/injection, schedule: Q04DX003 (sc), vehicle: suspension in saline) is reported as 145 % of control.
`Cc1ccc2nc(-c3ccc4nc(-c5ccc(N=Nc6ccc(-c7nc8ccc(-c9nc%10ccc(C)c(S(=O)(=O)O)c%10s9)cc8s7)cc6)cc5)sc4c3)sc2c1S(=O)(=O)O` was tested, and the T/C (dose: 200.0 mg/kg/injection, schedule: Q04DX003 (sc), vehicle: suspension in saline) was 145 % of control.
With `CCn1cnc2c(=S)nc[nH]c21` the T/C (dose: 75.0 mg/kg/injection, schedule: Q04DX003 (sc), vehicle: saline) was 145 % of control and the T/C [6] was 131 % of control.
With `OCCN1CCN(CCCN2c3ccccc3Sc3ccc(C(F)(F)F)cc32)CC1` the T/C (dose: 5.0 mg/kg/injection, schedule: Q01DX010 (sc), vehicle: saline) was 138 % of control and the T/C (dose: 10.0 mg/kg/injection, schedule: Q01DX010 (sc), vehicle: saline) was 137 % of control [2 of 2 alive on day 11].
For `O=c1[nH]cnc2[nH]ncc12`, the survivor count (dose: 1200.0 mg/kg/injection, schedule: Q04DX003 (sc), vehicle: suspension in saline) was 3 of 6 on day 11.
In the case of `NC(=S)N/N=C/c1ccc(OC(=O)COc2ccc(Cl)cc2)cn1`, the survivor count (dose: 2400.0 mg/kg/injection, schedule: Q04DX003 (sc), vehicle: saline with Tween-80) is reported as 2 of 6 on day 11.
For `CC1CN1P1(N2CC2C)=NP(N2CC2C)(N2CC2C)=NP(N2CC2C)(N2CC2C)=N1` (configuration not stated), the survivor count (dose: 200.0 mg/kg/injection, schedule: Q01DX010 (sc), vehicle: saline) was 0 of 3 on day 11, 0 of 6 on day 11, 1 of 6 on day 11.
For `CCN(CC)CCOC(=O)Cc1cccc2c(=O)cc(-c3ccccc3)oc12`, the T/C (dose: 50.0 mg/kg/injection, schedule: Q04DX003 (sc), vehicle: saline with Tween-80) was 137 % of control and the survivor count (dose: 400.0 mg/kg/injection, schedule: Q04DX003 (sc), vehicle: saline with Tween-80) was 2 of 6 on day 11.
With `CN=C(N)N/N=C(\C)c1ccc2c(c1)Cc1ccccc1-2` the survivor count (dose: 1200.0 mg/kg/injection, schedule: Q04DX003 (sc), vehicle: saline with Tween-80) was 2 of 6 on day 11.
In the case of `CC[C@@]1(O)C[C@H](OC2CC(N(C)C)C(OC3CC(O)C(OC4CCC(=O)C(C)O4)C(C)O3)C(C)O2)c2c(cc3c(c2O)C(=O)c2c(O)ccc(O)c2C3=O)[C@H]1C(=O)OC` (some centres not stated), the survivor count (dose: 12.0 mg/kg/injection, schedule: Q04DX003 (sc), vehicle: water) is reported as 1 of 6 on day 11 and the survivor count (dose: 24.0 mg/kg/injection, schedule: Q04DX003 (sc), vehicle: water) is reported as 0 of 6 on day 11.
